Assay [1] concerns the target T1, Recombinant human bone morphogenetic protein-1 (BMP-1) with a C-terminal FLAG tag (human) (UniProt P13497).
T1 sequence: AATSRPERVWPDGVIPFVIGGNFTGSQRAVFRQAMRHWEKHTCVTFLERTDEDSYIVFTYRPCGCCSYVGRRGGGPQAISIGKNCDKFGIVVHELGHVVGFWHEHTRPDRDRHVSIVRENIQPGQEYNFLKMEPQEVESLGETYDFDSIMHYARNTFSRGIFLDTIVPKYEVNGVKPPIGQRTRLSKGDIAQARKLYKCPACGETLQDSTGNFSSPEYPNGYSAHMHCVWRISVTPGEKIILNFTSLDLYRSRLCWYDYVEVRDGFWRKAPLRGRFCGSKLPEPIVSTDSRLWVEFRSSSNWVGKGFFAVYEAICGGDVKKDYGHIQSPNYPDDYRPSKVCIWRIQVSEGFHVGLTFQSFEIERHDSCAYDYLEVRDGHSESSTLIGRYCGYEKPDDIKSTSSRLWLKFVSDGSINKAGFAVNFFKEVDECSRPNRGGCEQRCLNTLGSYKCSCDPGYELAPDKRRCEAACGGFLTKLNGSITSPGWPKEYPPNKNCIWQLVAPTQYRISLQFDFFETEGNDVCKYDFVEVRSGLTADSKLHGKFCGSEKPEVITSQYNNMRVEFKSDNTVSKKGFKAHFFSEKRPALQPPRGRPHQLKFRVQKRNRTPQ
Briefly: SPR; single injections over immobilised BMP-1 (2,300 RU) or mTLL-1 (1,120 or 310 RU): C1q CLR, C1q GR and MBL CRD at 500 nM; wt MBL, K55A and K55E at 16 nM; 50 mM triethanolamine-HCl, 145 mM NaCl, 2 mM CaCl2, 0.005% P20, pH 7.4; both purified. On the technique in general: Surface plasmon resonance follows binding to a sensor surface in real time, without labels.

The target of assay [2] is T2, Recombinant human mammalian tolloid-like-1 (mTLL-1) with a C-terminal 6x-His tag (human) (UniProt O43897).
T2 sequence: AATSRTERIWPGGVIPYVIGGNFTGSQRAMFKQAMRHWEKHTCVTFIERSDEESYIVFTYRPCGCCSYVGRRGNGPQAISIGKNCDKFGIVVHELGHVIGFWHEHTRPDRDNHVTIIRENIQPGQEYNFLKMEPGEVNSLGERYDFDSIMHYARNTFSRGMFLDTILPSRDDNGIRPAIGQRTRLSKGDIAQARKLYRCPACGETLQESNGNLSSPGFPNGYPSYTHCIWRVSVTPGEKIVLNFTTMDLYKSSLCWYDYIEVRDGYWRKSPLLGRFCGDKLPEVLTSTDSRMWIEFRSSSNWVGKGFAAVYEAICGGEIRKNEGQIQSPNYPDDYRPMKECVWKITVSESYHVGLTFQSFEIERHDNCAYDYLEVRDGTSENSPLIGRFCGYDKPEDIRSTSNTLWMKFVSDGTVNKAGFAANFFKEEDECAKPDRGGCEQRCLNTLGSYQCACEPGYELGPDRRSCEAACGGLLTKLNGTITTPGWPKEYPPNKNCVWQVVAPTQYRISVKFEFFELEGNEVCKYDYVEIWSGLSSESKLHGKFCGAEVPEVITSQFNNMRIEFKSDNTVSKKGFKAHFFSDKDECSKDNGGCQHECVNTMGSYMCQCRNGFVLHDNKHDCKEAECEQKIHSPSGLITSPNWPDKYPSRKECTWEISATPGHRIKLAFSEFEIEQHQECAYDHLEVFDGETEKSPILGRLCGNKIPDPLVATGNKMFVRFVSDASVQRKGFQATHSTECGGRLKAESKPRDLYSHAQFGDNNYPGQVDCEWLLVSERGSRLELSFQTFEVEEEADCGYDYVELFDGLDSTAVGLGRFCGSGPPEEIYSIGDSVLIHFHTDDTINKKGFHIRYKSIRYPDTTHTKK
Described as above.

Results are given in words; binding and its absence hold for the method and conditions named. Tags and fused reporters may be left off the sequences shown.

For the substance “recombinant trimeric carbohydrate recognition domain of MBL (CRD) (human) (domain or fragment)”, the binding result in assay [1] and in assay [2] was “no binding (tested: 500 nM)” each time.

The values above are taken from PMC5717261.
